From patent publication US7960377B2 (priority 2008, dated 2011)
Like-named read-outs stand apart in the source and are kept apart here. Some entries share one result that the patent states for a list of compounds.

Protein sequences, listed by entry. Tags and fused reporters are not part of them.
UniProt P21554, whole entry: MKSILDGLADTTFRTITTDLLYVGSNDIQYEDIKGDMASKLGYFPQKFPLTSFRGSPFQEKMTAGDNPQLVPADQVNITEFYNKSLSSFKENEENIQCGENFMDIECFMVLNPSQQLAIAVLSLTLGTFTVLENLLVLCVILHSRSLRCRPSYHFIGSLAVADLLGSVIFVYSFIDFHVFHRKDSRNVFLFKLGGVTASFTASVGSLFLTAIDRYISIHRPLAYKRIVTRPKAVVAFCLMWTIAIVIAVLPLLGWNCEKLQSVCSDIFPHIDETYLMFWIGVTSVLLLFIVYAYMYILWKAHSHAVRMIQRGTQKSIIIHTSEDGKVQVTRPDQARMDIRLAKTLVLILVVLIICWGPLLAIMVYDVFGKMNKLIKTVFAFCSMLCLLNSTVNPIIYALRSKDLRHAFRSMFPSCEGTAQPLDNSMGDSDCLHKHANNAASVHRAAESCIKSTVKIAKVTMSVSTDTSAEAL
UniProt P34972, whole entry: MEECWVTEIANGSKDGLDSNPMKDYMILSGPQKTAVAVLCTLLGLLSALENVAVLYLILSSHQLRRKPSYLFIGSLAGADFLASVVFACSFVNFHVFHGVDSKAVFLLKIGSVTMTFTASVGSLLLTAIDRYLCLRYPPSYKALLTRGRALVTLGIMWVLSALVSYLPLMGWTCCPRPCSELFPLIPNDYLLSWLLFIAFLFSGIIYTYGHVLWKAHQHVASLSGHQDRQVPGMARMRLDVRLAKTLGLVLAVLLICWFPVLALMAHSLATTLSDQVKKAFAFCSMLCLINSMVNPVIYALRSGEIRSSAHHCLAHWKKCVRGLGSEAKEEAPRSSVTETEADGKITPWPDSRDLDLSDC

Experiments:
Format in all cases: cell-based
human CB1 receptor = human CB1 receptor (Homo sapiens, UniProt P21554); details: read-out: EC50 values for human CB1 receptor, change in intracellular cAMP, CHO-K1 hCB1 cells
human CB2 receptor = human CB2 receptor (Homo sapiens, UniProt P34972); details: read-out: EC50 values for human CB2 receptor, change in intracellular cAMP, CHO-K1 hCB2 cells
rat CB2 receptor = target: T1, rat CB2 receptor (Rattus norvegicus, UniProt Q9QZN9); details: read-out: EC50 values for rat CB2 receptor, change in intracellular cAMP, CHO-K1 rCB2 cells
T1 sequence (Q9QZN9 1-360): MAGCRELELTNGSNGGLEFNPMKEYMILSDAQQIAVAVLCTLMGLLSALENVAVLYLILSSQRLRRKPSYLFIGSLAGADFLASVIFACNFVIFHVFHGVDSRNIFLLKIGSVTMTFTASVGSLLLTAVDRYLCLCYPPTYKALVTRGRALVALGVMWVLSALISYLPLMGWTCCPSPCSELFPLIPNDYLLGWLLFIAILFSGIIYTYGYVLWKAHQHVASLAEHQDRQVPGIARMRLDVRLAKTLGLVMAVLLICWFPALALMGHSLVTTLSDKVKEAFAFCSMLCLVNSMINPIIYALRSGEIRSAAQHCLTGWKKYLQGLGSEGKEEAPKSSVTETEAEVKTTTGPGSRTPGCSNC

[1] = bin >300 nM-3 μM, units given in the value

Compound	EC50 (rat CB2 receptor; EC50 bins in nM) [nM]	EC50 (human CB2 receptor; [1]) [µM]	further results
CC(C)(C)NC(=O)c1cnc2c(c1)N(S(=O)(=O)c1ccc(C#N)cc1)CCO2 [Example 3, N-tert-butyl-1-(4-cyanophenylsulfonyl)-2,3-dihydro-1H-pyrido[2,3-b][1,4]oxazine-7-carboxamide]			EC50 (human CB1 receptor; bin in μM): 3 to 30 µM
CC(C)(C)NC(=O)c1cnc2c(c1)N(S(=O)(=O)c1ccc(F)cc1)CCO2 [Example 7, N-tert-butyl-1-(4-fluoro-phenylsulfonyl)-2,3-dihydro-1H-pyrido[2,3-b][1,4]oxazine-7-carboxamide]			EC50 (human CB1 receptor; bin in μM): 3 to 30 µM
CC(C)(C)CNC(=O)c1cnc2c(c1)N(S(=O)(=O)c1ccc(F)cc1)CCO2 [Example 11]			EC50 (human CB1 receptor; [1]): 0.3 to 3 µM
CC(C)(C)NC(=O)c1cnc2c(c1)N(S(=O)(=O)c1ccc(Cl)cc1)CCO2 [Example 24, N-tert-butyl-1-(4-chlorophenylsulfonyl)-2,3-dihydro-1H-pyrido[2,3-b][1,4]oxazine-7-carboxamide]			EC50 (human CB1 receptor; [1]): 0.3 to 3 µM
O=C(NC1CCCC1)c1cnc2c(c1)N(S(=O)(=O)c1ccc(Cl)cc1)CCO2 [Example 25, 1-(4-chlorophenyl-sulfonyl)-N-cyclopentyl-2,3-dihydro-1H-pyrido[2,3-b][1,4]oxazine-7-carboxamide]			EC50 (human CB1 receptor; [1]): 0.3 to 3 µM
O=C(NCCO)c1cnc2c(c1)N(S(=O)(=O)c1ccc(Cl)c(Cl)c1)CCO2 [Example 114, 1-(3,4-dichlorophenyl-sulfonyl)-N-(2-hydroxyethyl)-2,3-dihydro-1H-pyrido[2,3-b][1,4]oxazine-7-carboxamide]	30 to 300		EC50 (human CB2 receptor; bin in μM): 3 to 30 µM
O=C(c1cnc2c(c1)N(S(=O)(=O)c1ccc(Cl)c(Cl)c1)CCO2)N1CCC[C@@H]1CO [Example 122, (R)-(1-(3,4-dichlorophenyl-sulfonyl)-2,3-dihydro-1H-pyrido[2,3-b][1,4]oxazin-7-yl)(2-(hydroxymethyl)pyrrolidin-1-yl)methanone]	30 to 300	0.3 to 3	
O=C(c1cnc2c(c1)N(S(=O)(=O)c1ccc(Cl)c(Cl)c1)CCO2)N1CCC(F)(F)C1 [Example 126, (1-(3,4-dichlorophenyl-sulfonyl)-2,3-dihydro-1H-pyrido[2,3-b][1,4]oxazin-7-yl)(3,3-difluoro-pyrrolidin-1-yl)methanone]	30 to 300	0.3 to 3	
O=C(c1cnc2c(c1)N(S(=O)(=O)c1ccc(Cl)c(Cl)c1)CCO2)N1CC(F)(F)C1 [Example 128, (1-(3,4-dichlorophenyl-sulfonyl)-2,3-dihydro-1H-pyrido[2,3-b][1,4]oxazin-7-yl)(3,3-difluoroazetidin-1-yl)methanone]	30 to 300	0.3 to 3	
COC1CN(C(=O)c2cnc3c(c2)N(S(=O)(=O)c2ccc(Cl)c(Cl)c2)CCO3)C1 [Example 129, (1-(3,4-dichlorophenyl-sulfonyl)-2,3-dihydro-1H-pyrido[2,3-b][1,4]oxazin-7-yl)(3-methoxyazetidin-1-yl)methanone]	30 to 300	0.3 to 3	
CCC(C)(C)NC(=O)c1cnc2c(c1)N(S(=O)(=O)N(C)C)CCO2 [Example 143, 1-(N,N-dimethyl-sulfamoyl)-N-tert-pentyl-2,3-dihydro-1H-pyrido[2,3-b][1,4]oxazine-7-carboxamide]		0.3 to 3	EC50 (rat CB2 receptor; [1]): 300 to 3000 nM
CN(C)S(=O)(=O)N1CCOc2ncc(C(=O)NC(C)(C)CO)cc21 [Example 144, 1-(N,N-dimethyl-sulfamoyl)-N-(1-hydroxy-2-methylpropan-2-yl)-2,3-dihydro-1H-pyrido[2,3-b][1,4]oxazine-7-carboxamide]			EC50 (human CB2 receptor; bin in μM): 3 to 30 µM; EC50 (rat CB2 receptor; bin in μM): 3000 to 30000 nM
CC(C)(CN1CCOCC1)NC(=O)c1cnc2c(c1)N(S(=O)(=O)N1CCCCC1)CCO2 [Example 147, N-(2-methyl-1-morpholinopropan-2-yl)-1-(piperidin-1-ylsulfonyl)-2,3-dihydro-1H-pyrido[2,3-b][1,4]oxazine-7-carboxamide]	30 to 300	0.3 to 3	
CCC(C)(C)NC(=O)c1cnc2c(c1)N(S(=O)(=O)N1CCC(C(F)(F)F)CC1)CCO2 [Example 151, N-tert-pentyl-1-(4-(trifluoromethyl)piperidin-1-ylsulfonyl)-2,3-dihydro-1H-pyrido[2,3-b][1,4]oxazine-7-carboxamide]			EC50 (human CB1 receptor; [1]): 0.3 to 3 µM
CC(C)(C)NC(=O)c1cnc2c(c1)N(S(=O)(=O)N1CCC(F)(F)CC1)CCO2 [Example 156, N-tert-butyl-1-(4,4-difluoropiperidin-1-ylsulfonyl)-2,3-dihydro-1H-pyrido[2,3-b][1,4]oxazine-7-carboxamide]			EC50 (human CB1 receptor; bin in μM): 3 to 30 µM
CC(C)(C)c1cc(NC(=O)c2cnc3c(c2)N(S(=O)(=O)N2CCC(c4ccccc4)CC2)CCO3)no1 [Example 162, N-(5-tert-butylisoxazol-3-yl)-1-(4-phenylpiperidin-1-ylsulfonyl)-2,3-dihydro-1H-pyrido[2,3-b][1,4]oxazine-7-carboxamide]	30 to 300	0.3 to 3	
CCC(C)(C)NC(=O)c1cnc2c(c1)N(S(=O)(=O)N1CCN(C)CC1)CCO2 [Example 175, 1-(4-methylpiperazin-1-ylsulfonyl)-N-tert-pentyl-2,3-dihydro-1H-pyrido[2,3-b][1,4]oxazine-7-carboxamide]		0.3 to 3	EC50 (rat CB2 receptor; [1]): 300 to 3000 nM
CC(C)(C)NC(=O)c1cnc2c(c1)N(S(=O)(=O)N1CCC(N3CCCC3)CC1)CCO2 [Example 176, N-tert-butyl-1-(4-(pyrrolidin-1-yl)piperidin-1-ylsulfonyl)-2,3-dihydro-1H-pyrido[2,3-b][1,4]oxazine-7-carboxamide]			EC50 (human CB2 receptor; bin in μM): 3 to 30 µM; EC50 (rat CB2 receptor; [1]): 300 to 3000 nM
CC(C)(CO)NC(=O)c1cnc2c(c1)N(S(=O)(=O)NCc1ccccc1)CCO2 [Example 179, 1-(N-benzylsulfamoyl)-N-(1-hydroxy-2-methylpropan-2-yl)-2,3-dihydro-1H-pyrido[2,3-b][1,4]oxazine-7-carboxamide]	30 to 300	0.3 to 3	
CC(C)CNS(=O)(=O)N1CCOc2ncc(C(=O)NC(C)(C)CO)cc21 [Example 181, N-(1-hydroxy-2-methylpropan-2-yl)-1-(N-isobutylsulfamoyl)-2,3-dihydro-1H-pyrido[2,3-b][1,4]oxazine-7-carboxamide]	30 to 300	0.3 to 3	
CC(C)(C)NC(=O)c1cnc2c(c1)N(S(=O)(=O)N1CCC(Cl)CC1)CCO2 [Example 184, N-tert-butyl-1-(4-chloropiperidin-1-ylsulfonyl)-2,3-dihydro-1H-pyrido[2,3-b][1,4]oxazine-7-carboxamide]			EC50 (human CB1 receptor; [1]): 0.3 to 3 µM
CCC(C)(C)NC(=O)c1cnc2c(c1)N(S(=O)(=O)N1CCC(Cl)CC1)CCO2 [Example 185, 1-(4-chloropiperidin-1-ylsulfonyl)-N-tert-pentyl-2,3-dihydro-1H-pyrido[2,3-b][1,4]oxazine-7-carboxamide]			EC50 (human CB1 receptor; [1]): 0.3 to 3 µM
CC1CC(C)CN(C(=O)c2cnc3c(c2)N(S(=O)(=O)c2ccc(C(F)(F)F)cc2)CCO3)C1 (stereo not shown) [Example 200, (3,5-dimethylpiperidin-1-yl)(1-(4-(trifluoromethyl)phenylsulf-onyl)-2,3-dihydro-1H-pyrido[2,3-b][1,4]oxazin-7-yl)methanone]	30 to 300		EC50 (human CB2 receptor; EC50 bins in nM): 0.03 to 0.3 µM
O=C(OCC1CCCCN1)c1cnc2c(c1)N(S(=O)(=O)c1ccc(C(F)(F)F)cc1)CCO2 (stereo not shown) [Example 202, piperidin-2-ylmethyl 1-(4-(trifluoromethyl)phenylsulfonyl)-2,3-dihydro-1H-pyrido[2,3-b][1,4]oxazine-7-carboxylate]	30 to 300		EC50 (human CB2 receptor; bin in μM): 3 to 30 µM
CNCC(C)(C)COC(=O)c1cnc2c(c1)N(S(=O)(=O)c1ccc(Cl)c(Cl)c1)CCO2 [Example 204, 2,2-dimethyl-3-(methylamino)propyl 1-(3,4-dichlorophenylsulfonyl)-2,3-dihydro-1H-pyrido[2,3-b][1,4]oxazine-7-carboxylate]	30 to 300	0.3 to 3	
O=S(=O)(c1ccccc1)N1CCOc2ncc(-c3nnc(-c4ccccc4)o3)cc21 [Example 211, 7-(5-phenyl-1,3,4-oxadiazol-2-yl)-1-(phenylsulfonyl)-2,3-dihydro-1H-pyrido[2,3-b][1,4]oxazine]	30 to 300		EC50 (human CB2 receptor; EC50 bins in nM): 0.03 to 0.3 µM
CC(C)(C)NC(=O)c1cnc2c(c1)N(Cc1ccccc1)C(=O)CO2 [Example 220, 1-benzyl-N-tert-butyl-2-oxo-2,3-dihydro-1H-pyrido[2,3-b] [1,4]oxazine-7-carboxamide]	30 to 300	0.3 to 3	
O=C(NC1CCCC1)c1cnc2c(c1)N(Cc1ccc(F)cc1)C(=O)CO2 [Example 221, N-cyclopentyl-1-(4-fluorobenzyl)-2-oxo-2,3-dihydro-1H-pyrido[2,3-b] [1,4]oxazine-7-carboxamide]	30 to 300		EC50 (human CB2 receptor; EC50 bins in nM): 0.03 to 0.3 µM
O=C(NC1CCCC1)c1cnc2c(c1)N(Cc1ccc(Cl)cc1)C(=O)CO2 [Example 222, 1-(4-chlorobenzyl)-N-cyclopentyl-2-oxo-2,3-dihydro-1H-pyrido[2,3-b][1,4]oxazine-7-carboxamide]	30 to 300		EC50 (human CB2 receptor; EC50 bins in nM): 0.03 to 0.3 µM
